Results are given in words; binding and its absence hold for the method and conditions named. Binding seen in cells or lysates may run through a third protein. Some results given as binding are weak or reduced against the parent protein; the word gives no strength.

Chains of the proteins cited; added tags and fusions are not shown. Lines headed by an entry give the natural chain unless they say otherwise; changes in a name come on top.
UniProt P23819: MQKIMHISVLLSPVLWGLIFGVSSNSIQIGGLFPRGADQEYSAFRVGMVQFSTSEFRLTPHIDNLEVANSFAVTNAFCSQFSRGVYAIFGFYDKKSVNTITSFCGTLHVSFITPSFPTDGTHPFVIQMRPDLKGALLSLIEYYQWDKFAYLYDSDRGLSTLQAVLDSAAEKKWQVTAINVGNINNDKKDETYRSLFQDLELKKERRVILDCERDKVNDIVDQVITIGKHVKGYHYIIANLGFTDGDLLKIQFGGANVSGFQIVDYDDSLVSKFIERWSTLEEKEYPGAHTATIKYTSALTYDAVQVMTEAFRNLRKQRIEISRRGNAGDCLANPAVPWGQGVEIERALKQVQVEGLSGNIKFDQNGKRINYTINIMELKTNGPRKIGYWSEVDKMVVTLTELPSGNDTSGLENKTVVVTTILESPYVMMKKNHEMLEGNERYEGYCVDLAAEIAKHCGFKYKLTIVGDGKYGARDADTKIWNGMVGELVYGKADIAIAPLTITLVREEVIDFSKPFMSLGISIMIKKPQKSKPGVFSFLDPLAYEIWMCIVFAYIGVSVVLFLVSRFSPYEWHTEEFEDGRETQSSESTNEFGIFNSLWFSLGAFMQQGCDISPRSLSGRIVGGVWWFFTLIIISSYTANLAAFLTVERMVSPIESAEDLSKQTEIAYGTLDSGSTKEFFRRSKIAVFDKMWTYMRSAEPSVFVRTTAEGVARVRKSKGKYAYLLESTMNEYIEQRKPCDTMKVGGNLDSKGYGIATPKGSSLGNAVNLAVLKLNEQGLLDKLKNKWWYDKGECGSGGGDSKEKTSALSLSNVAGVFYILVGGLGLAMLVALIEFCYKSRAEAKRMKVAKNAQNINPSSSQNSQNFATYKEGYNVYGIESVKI
UniProt Q9Z2W9: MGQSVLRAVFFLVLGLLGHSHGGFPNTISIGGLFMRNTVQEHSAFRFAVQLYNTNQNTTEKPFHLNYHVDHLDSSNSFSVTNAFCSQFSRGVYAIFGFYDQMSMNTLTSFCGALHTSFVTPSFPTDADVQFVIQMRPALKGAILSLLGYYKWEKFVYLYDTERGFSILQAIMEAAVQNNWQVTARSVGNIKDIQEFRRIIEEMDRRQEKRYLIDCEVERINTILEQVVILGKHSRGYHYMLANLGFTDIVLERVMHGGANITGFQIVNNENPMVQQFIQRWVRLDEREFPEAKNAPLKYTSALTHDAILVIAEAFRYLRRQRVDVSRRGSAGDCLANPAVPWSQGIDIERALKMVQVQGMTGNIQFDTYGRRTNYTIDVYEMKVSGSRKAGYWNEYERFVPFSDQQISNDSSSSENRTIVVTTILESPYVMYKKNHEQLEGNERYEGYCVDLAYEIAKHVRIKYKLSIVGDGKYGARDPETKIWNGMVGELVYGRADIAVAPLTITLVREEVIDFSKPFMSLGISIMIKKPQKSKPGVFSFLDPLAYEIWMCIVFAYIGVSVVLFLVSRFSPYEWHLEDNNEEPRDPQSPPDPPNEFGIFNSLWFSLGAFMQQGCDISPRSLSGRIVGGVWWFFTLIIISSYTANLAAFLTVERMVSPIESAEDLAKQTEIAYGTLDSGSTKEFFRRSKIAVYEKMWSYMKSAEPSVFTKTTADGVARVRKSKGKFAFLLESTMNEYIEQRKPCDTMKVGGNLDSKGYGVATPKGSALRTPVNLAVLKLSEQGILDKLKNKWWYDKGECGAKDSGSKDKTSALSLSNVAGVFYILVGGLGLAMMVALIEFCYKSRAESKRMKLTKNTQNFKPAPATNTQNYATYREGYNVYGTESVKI

Experimental findings from PMC9688267 are described below.

This test has as its target GluA2/3 receptor (AMPA receptor heterotetramer of GluA2 and GluA3) (mouse (endogenous in hippocampus)) (UniProt P23819+Q9Z2W9). Put plainly: co-IP; anti-GluA2/3 IP (10 µg) from wildtype hippocampus synaptic extract after prior depletion of GluA1-containing receptors with 33 µg GluA1-specific antibody (IP+); immunoblot; n = 3.

B1: Cornichon homolog 2 (protein, UniProt O35089 1-160)
chain: MAFTFAAFCYMLTLVLCASLIFFVIWHIIAFDELRTDFKNPIDQGNPARARERLKNIERICCLLRKLVVPEYSIHGLFCLMFLCAAEWVTLGLNIPLLFYHLWRYFHRPADGSEVMYDAVSIMNADILNYCQKESWCKLAFYLLSFFYYLYSMVYTLVSF
On to B1, for which the binding result is recorded as “binds”.
